Patent publication US20030108872A1, “Genomics-assisted rapid identification of targets” (priority 2000, published 2003)

Test system: E. coli
Assay: Mutation frequency to resistance with and without MNNG treatment
Assay type: cell-based
Settings: LB agar with 2 to 8 fold MIC of antibiotic
[1] = after MNNG treatment (400 μg/ml, 20 minutes)

SMILES: CCn1cc(C(=O)O)c(=O)c2ccc(C)nc21 [nalidixic acid]
- mutation frequency to resistance [1]: 1.6×10^−6
- mutation frequency to resistance (before MNNG treatment): 3.5×10^−8

SMILES: Oc1cc(Cl)ccc1Oc1ccc(Cl)cc1Cl [triclosan]
- mutation frequency to resistance [1]: 3.2×10^−8
- mutation frequency to resistance (before MNNG treatment): < 10^−9
